Values from PubChem BioAssay AID1508597 (Cure First, 2020)
Purpose: 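Knock-downs altering ovarian cancer cell survival with or without PARP inhibitor rucaparib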 (primary screen). Cell system: human ovarian carcinoma lines grown from tumours: OCI-P5x (papillary serous) and OCI-C5x (clear cell). Reagents: siRNA pool against human genes, 1.25 pmol siRNA per well. Time to read-out: 72 h or 96 h, depending on the cell culture. Conditions: rucaparib 20 µM (about IC30) or vehicle, present until read-out. Detection: 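ATP luminescence measured at 72 or 96 h according to the culture, then normalised and expressed as percent viability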. Direction: viability, normalised: higher = more viable cells remaining. Rule for the call: 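a well counts as a hit if its normalised viability is under 80 percent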. Meaning of the calls: active = viability under 80%; inactive = viability 80% or more.
The whole screen tested about 2,100 reagents; shown is a random part of them. 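Calls flag viability under 80% in either arm, not effects specific to rucaparib; the reference for percent is not stated.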 Unmarked entries are inactive. A reagent listed more than once was tested more than once; the source does not tell the runs apart. Not stated in the record: the 100% reference.

| gene symbol | rucaparib or vehicle | cell line | technical replicate | viability, normalised (%) |
| --- | --- | --- | --- | --- |
| CAMK2B | Rucaparib | OCI-C5x (clear cell) | 1 | 35.9 (active) |
| CAMK2B | Rucaparib | OCI-C5x (clear cell) | 2 | 39.3 (active) |
| CAMK2B | Rucaparib | OCI-C5x (clear cell) | 3 | 43 (active) |
| CAMK2B | Rucaparib | OCI-P5x (serous) | 1 | 81.3 |
| CAMK2B | Rucaparib | OCI-P5x (serous) | 2 | 74.6 (active) |
| CAMK2B | Rucaparib | OCI-P5x (serous) | 3 | 68.5 (active) |
| CAMK2B | Vehicle | OCI-C5x (clear cell) | 1 | 45.8 (active) |
| CAMK2B | Vehicle | OCI-C5x (clear cell) | 2 | 38.1 (active) |
| CAMK2B | Vehicle | OCI-C5x (clear cell) | 3 | 44.5 (active) |
| CAMK2B | Vehicle | OCI-P5x (serous) | 1 | 81 |
| CAMK2B | Vehicle | OCI-P5x (serous) | 2 | 66.7 (active) |
| CAMK2B | Vehicle | OCI-P5x (serous) | 3 | 91.2 |
| CSF1R | Rucaparib | OCI-C5x (clear cell) | 1 | 52.5 (active) |
| CSF1R | Rucaparib | OCI-C5x (clear cell) | 2 | 56.2 (active) |
| CSF1R | Rucaparib | OCI-C5x (clear cell) | 3 | 49.7 (active) |
| CSF1R | Rucaparib | OCI-P5x (serous) | 1 | 75.7 (active) |
| CSF1R | Rucaparib | OCI-P5x (serous) | 2 | 112 |
| CSF1R | Rucaparib | OCI-P5x (serous) | 3 | 97.8 |
| CSF1R | Vehicle | OCI-C5x (clear cell) | 1 | 45.4 (active) |
| CSF1R | Vehicle | OCI-C5x (clear cell) | 2 | 55.2 (active) |
| CSF1R | Vehicle | OCI-C5x (clear cell) | 3 | 45.5 (active) |
| CSF1R | Vehicle | OCI-P5x (serous) | 1 | 93.6 |
| CSF1R | Vehicle | OCI-P5x (serous) | 2 | 88.1 |
| CSF1R | Vehicle | OCI-P5x (serous) | 3 | 90.4 |

7 entries already listed, sorted by “viability, normalised (%)”, ascending:
| gene symbol | rucaparib or vehicle | cell line | technical replicate | viability, normalised (%) |
| --- | --- | --- | --- | --- |
| CAMK2B | Vehicle | OCI-C5x (clear cell) | 2 | 38.1 (active) |
| CAMK2B | Vehicle | OCI-C5x (clear cell) | 3 | 44.5 (active) |
| CAMK2B | Vehicle | OCI-C5x (clear cell) | 1 | 45.8 (active) |
| CAMK2B | Vehicle | OCI-P5x (serous) | 2 | 66.7 (active) |
| CAMK2B | Rucaparib | OCI-P5x (serous) | 3 | 68.5 (active) |
| CAMK2B | Vehicle | OCI-P5x (serous) | 1 | 81 |
| CAMK2B | Vehicle | OCI-P5x (serous) | 3 | 91.2 |

Next records follow.
| gene symbol | rucaparib or vehicle | cell line | technical replicate | viability, normalised (%) |
| --- | --- | --- | --- | --- |
| TMPO | Rucaparib | OCI-C5x (clear cell) | 1 | 69.3 (active) |
| TMPO | Rucaparib | OCI-C5x (clear cell) | 2 | 59.3 (active) |
| TMPO | Rucaparib | OCI-C5x (clear cell) | 3 | 61.3 (active) |
| TMPO | Rucaparib | OCI-P5x (serous) | 1 | 109 |
| TMPO | Rucaparib | OCI-P5x (serous) | 2 | 104 |
| TMPO | Rucaparib | OCI-P5x (serous) | 3 | 66.2 (active) |
| TMPO | Vehicle | OCI-C5x (clear cell) | 1 | 52.4 (active) |
| TMPO | Vehicle | OCI-C5x (clear cell) | 2 | 58.6 (active) |
| TMPO | Vehicle | OCI-C5x (clear cell) | 3 | 57 (active) |
| TMPO | Vehicle | OCI-P5x (serous) | 1 | 96.6 |
| TMPO | Vehicle | OCI-P5x (serous) | 2 | 97.4 |
| TMPO | Vehicle | OCI-P5x (serous) | 3 | 87.9 |
| DPH7 | Rucaparib | OCI-C5x (clear cell) | 1 | 52.6 (active) |
| DPH7 | Rucaparib | OCI-C5x (clear cell) | 2 | 52.7 (active) |
| DPH7 | Rucaparib | OCI-C5x (clear cell) | 3 | 56.4 (active) |
| DPH7 | Rucaparib | OCI-P5x (serous) | 1 | 79.4 (active) |
| DPH7 | Rucaparib | OCI-P5x (serous) | 2 | 63.4 (active) |
| DPH7 | Rucaparib | OCI-P5x (serous) | 3 | 61.5 (active) |
| DPH7 | Vehicle | OCI-C5x (clear cell) | 1 | 55.3 (active) |
| DPH7 | Vehicle | OCI-C5x (clear cell) | 2 | 68.7 (active) |
| DPH7 | Vehicle | OCI-C5x (clear cell) | 3 | 57.8 (active) |
| DPH7 | Vehicle | OCI-P5x (serous) | 1 | 70.3 (active) |
| DPH7 | Vehicle | OCI-P5x (serous) | 2 | 72 (active) |
| DPH7 | Vehicle | OCI-P5x (serous) | 3 | 69.3 (active) |
| SUV39H1 | Rucaparib | OCI-C5x (clear cell) | 1 | 51.6 (active) |
| SUV39H1 | Rucaparib | OCI-C5x (clear cell) | 1 | 49.9 (active) |
| SUV39H1 | Rucaparib | OCI-C5x (clear cell) | 2 | 61.5 (active) |
| SUV39H1 | Rucaparib | OCI-C5x (clear cell) | 2 | 34.2 (active) |
| SUV39H1 | Rucaparib | OCI-C5x (clear cell) | 3 | 59.1 (active) |
| SUV39H1 | Rucaparib | OCI-C5x (clear cell) | 3 | 35.4 (active) |
| SUV39H1 | Rucaparib | OCI-P5x (serous) | 1 | 66.3 (active) |
| SUV39H1 | Rucaparib | OCI-P5x (serous) | 1 | 89.8 |
| SUV39H1 | Rucaparib | OCI-P5x (serous) | 2 | 92.3 |
| SUV39H1 | Rucaparib | OCI-P5x (serous) | 2 | 72.3 (active) |
| SUV39H1 | Rucaparib | OCI-P5x (serous) | 3 | 87.2 |
| SUV39H1 | Rucaparib | OCI-P5x (serous) | 3 | 66.8 (active) |
| SUV39H1 | Vehicle | OCI-C5x (clear cell) | 1 | 45 (active) |
| SUV39H1 | Vehicle | OCI-C5x (clear cell) | 1 | 58.4 (active) |
| SUV39H1 | Vehicle | OCI-C5x (clear cell) | 2 | 43.8 (active) |
| SUV39H1 | Vehicle | OCI-C5x (clear cell) | 2 | 59.5 (active) |
| SUV39H1 | Vehicle | OCI-C5x (clear cell) | 3 | 33 (active) |
| SUV39H1 | Vehicle | OCI-C5x (clear cell) | 3 | 56.5 (active) |
| SUV39H1 | Vehicle | OCI-P5x (serous) | 1 | 83.2 |
| SUV39H1 | Vehicle | OCI-P5x (serous) | 1 | 78.8 (active) |
| SUV39H1 | Vehicle | OCI-P5x (serous) | 2 | 82.7 |
| SUV39H1 | Vehicle | OCI-P5x (serous) | 2 | 91.8 |
| SUV39H1 | Vehicle | OCI-P5x (serous) | 3 | 81.7 |
| SUV39H1 | Vehicle | OCI-P5x (serous) | 3 | 85.1 |
